From patent US20210277118A1 (Daiichi Sankyo, published 2021)
Results are given in words; binding and its absence hold for the method and conditions named. Some binding calls cover weakened binding; strength is not graded here. Tags and fused reporters may be left off the sequences shown.

Protein sequences, listed by entry. Tags and fused reporters are not part of them. Residues count along the entry.
UniProt Q95LI5, residues 22-198: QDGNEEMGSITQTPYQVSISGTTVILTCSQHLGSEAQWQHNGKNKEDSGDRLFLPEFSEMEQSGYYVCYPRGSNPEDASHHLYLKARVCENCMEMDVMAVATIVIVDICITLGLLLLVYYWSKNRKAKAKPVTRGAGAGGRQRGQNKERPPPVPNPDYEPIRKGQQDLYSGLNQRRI
UniProt P07766, residues 23-207: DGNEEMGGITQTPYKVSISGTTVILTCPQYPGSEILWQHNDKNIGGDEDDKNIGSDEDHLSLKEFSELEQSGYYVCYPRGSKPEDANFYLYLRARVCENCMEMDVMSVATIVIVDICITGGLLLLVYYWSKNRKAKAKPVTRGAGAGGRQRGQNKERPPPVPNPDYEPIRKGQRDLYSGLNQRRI

Experiments:
[1] = target: cynomolgus monkey CD3 expressed on T cells (cynomolgus pan T cells/PBMC, HSC-F cell line) (cynomolgus monkey) (UniProt Q95LI5); experiment: flow cytometry on cynomolgus T cells
[2] = target: human CD3 expressed on T cells (Jurkat cells, human pan T cells/PBMC) (human) (UniProt P07766); experiment: flow cytometry on human T cells
[3] = target: human CD3 expressed on T cells (Jurkat cells, human pan T cells/PBMC) (human) (UniProt P07766); experiment: cell ELISA on CD3+ Jurkat cells
[4] = target: human CD3 expressed on T cells (Jurkat cells, human pan T cells/PBMC) (human) (UniProt P07766); experiment: cell ELISA on CD3+ Jurkat cells, HRP anti-human IgG Fc secondary, OD 450 nm
[5] = target: cynomolgus monkey CD3 expressed on T cells (cynomolgus pan T cells/PBMC, HSC-F cell line) (cynomolgus monkey) (UniProt Q95LI5); experiment: flow cytometry on cynomolgus pan T cells gated CD4+, detection with anti-IgG-Fc, geo MFI

Measured: binding

B1: variant 19363, monovalent anti-CD3 scFv-heterodimeric Fc (VL hC3E-1_6L3a (D52N), VH hC3E-1) (Fc fusion, not shown: a dimerising Fc or GST; small tags and cut ends)
scFv: EVQLVESGGGLVQPGGSLRLSCAASGVTFNYYGMSWIRQAPGKGLEWVASITNSGGRIYYPDSVKGRFTISRENTQKTLYLQMNSLRAEDTAVYYCTLDGRDGWVAYWGQGTLVTVSSGGGGSGGGGSGGGGSQFVLTQPPSASGTPGQRVTISCKRNTGNIGSNYVNWYQQLPGTAPKTIIYRNDKRPDGVPDRFSGSIDSSSNSASLAISGLQSEDEADYYCQSYSSGFIFGGGTKLTVL
notes: scFv order VH-(GGGGS)3-VL on Fc chain A; chain B is Fc only; also called v19363
not listed: [5]
binds: all other assays above

B2: variant 19362, monovalent anti-CD3 scFv-heterodimeric Fc (VL hC3E-1_6L3b (D52N), VH hC3E-1) (Fc fusion, not shown: a dimerising Fc or GST; small tags and cut ends)
scFv: EVQLVESGGGLVQPGGSLRLSCAASGVTFNYYGMSWIRQAPGKGLEWVASITNSGGRIYYPDSVKGRFTISRENTQKTLYLQMNSLRAEDTAVYYCTLDGRDGWVAYWGQGTLVTVSSGGGGSGGGGSGGGGSNFMLTQPHSVSESPGKTVTISCKRNTGNIGSNYVNWYQQLPGTAPKTIIYRNDKRPDGVPDRFSGSIDSSSNSASLAISGLQSEDEADYYCQSYSSGFIFGGGTKLTVL
notes: scFv order VH-(GGGGS)3-VL on Fc chain A; chain B is Fc only; also called v19362
binds: all assays above

B3: variant 19370, monovalent anti-CD3 scFv-heterodimeric Fc (VL hC3E-1_1L1d, VH hC3E-1) (Fc fusion, not shown: a dimerising Fc or GST; small tags and cut ends)
scFv: EVQLVESGGGLVQPGGSLRLSCAASGVTFNYYGMSWIRQAPGKGLEWVASITNSGGRIYYPDSVKGRFTISRENTQKTLYLQMNSLRAEDTAVYYCTLDGRDGWVAYWGQGTLVTVSSGGGGSGGGGSGGGGSQVVLTQPPSASGTPGQRVTISCKRNTGNIGSNYVNWYQQLPGTAPKLLIYRDDKRPDGVPDRFSGSKSGTSASLAISGLQSEDEADYYCQSYSSGFIFGGGTKLTVL
notes: scFv order VH-(GGGGS)3-VL on Fc chain A; chain B is Fc only; also called v19370
binds: all assays above

B4: variant 18343, monovalent anti-CD3 scFv-heterodimeric Fc (VL hC3E-1-1L1, VH hC3E-1) (Fc fusion, not shown: a dimerising Fc or GST; small tags and cut ends)
scFv: EVQLVESGGGLVQPGGSLRLSCAASGVTFNYYGMSWIRQAPGKGLEWVASITNSGGRIYYPDSVKGRFTISRENTQKTLYLQMNSLRAEDTAVYYCTLDGRDGWVAYWGQGTLVTVSSGGGGSGGGGSGGGGSQSVLTQPPSASGTPGQRVTISCKRNTGNIGSNYVNWYQQLPGTAPKLLIYRDDKRPDGVPDRFSGSKSGTSASLAISGLQSEDEADYYCQSYSSGFIFGGGTKLTVL
notes: scFv order VH-(GGGGS)3-VL on Fc chain A; chain B is Fc only; also called v18343
binds: [3]

B5: variant 19371, monovalent anti-CD3 scFv-heterodimeric Fc (VL hC3E-1_1L1c, VH hC3E-1) (Fc fusion)
scFv: EVQLVESGGGLVQPGGSLRLSCAASGVTFNYYGMSWIRQAPGKGLEWVASITNSGGRIYYPDSVKGRFTISRENTQKTLYLQMNSLRAEDTAVYYCTLDGRDGWVAYWGQGTLVTVSSGGGGSGGGGSGGGGSQIVLTQPPSASGTPGQRVTISCKRNTGNIGSNYVNWYQQLPGTAPKLLIYRDDKRPDGVPDRFSGSKSGTSASLAISGLQSEDEADYYCQSYSSGFIFGGGTKLTVL
notes: scFv order VH-(GGGGS)3-VL on Fc chain A; chain B is Fc only; also called v19371; not shown: The Fc-only chain B is not tied by number to this variant
not listed: [5]
binds: all other assays above

B6: variant 19372, monovalent anti-CD3 scFv-heterodimeric Fc (VL hC3E-1_1L1b, VH hC3E-1) (Fc fusion)
scFv: EVQLVESGGGLVQPGGSLRLSCAASGVTFNYYGMSWIRQAPGKGLEWVASITNSGGRIYYPDSVKGRFTISRENTQKTLYLQMNSLRAEDTAVYYCTLDGRDGWVAYWGQGTLVTVSSGGGGSGGGGSGGGGSQLVLTQPPSASGTPGQRVTISCKRNTGNIGSNYVNWYQQLPGTAPKLLIYRDDKRPDGVPDRFSGSKSGTSASLAISGLQSEDEADYYCQSYSSGFIFGGGTKLTVL
notes: scFv order VH-(GGGGS)3-VL on Fc chain A; chain B is Fc only; also called v19372; not shown: The Fc-only chain B is not tied by number to this variant
not listed: [5]
binds: all other assays above

B7: variant 19373, monovalent anti-CD3 scFv-heterodimeric Fc (VL hC3E-1_1L1a, VH hC3E-1) (Fc fusion)
scFv: EVQLVESGGGLVQPGGSLRLSCAASGVTFNYYGMSWIRQAPGKGLEWVASITNSGGRIYYPDSVKGRFTISRENTQKTLYLQMNSLRAEDTAVYYCTLDGRDGWVAYWGQGTLVTVSSGGGGSGGGGSGGGGSQFVLTQPPSASGTPGQRVTISCKRNTGNIGSNYVNWYQQLPGTAPKLLIYRDDKRPDGVPDRFSGSKSGTSASLAISGLQSEDEADYYCQSYSSGFIFGGGTKLTVL
notes: scFv order VH-(GGGGS)3-VL on Fc chain A; chain B is Fc only; also called v19373; not shown: The Fc-only chain B is not tied by number to this variant
binds: [3] | [4]

B8: variant 21825, monovalent anti-CD3 scFv-heterodimeric Fc (VL hC3E-1_1L1d, VH hC3E-1(N53R_D102E)) (Fc fusion)
scFv: EVQLVESGGGLVQPGGSLRLSCAASGVTFNYYGMSWIRQAPGKGLEWVASITRSGGRIYYPDSVKGRFTISRENTQKTLYLQMNSLRAEDTAVYYCTLDGREGWVAYWGQGTLVTVSSGGGGSGGGGSGGGGSQVVLTQPPSASGTPGQRVTISCKRNTGNIGSNYVNWYQQLPGTAPKLLIYRDDKRPDGVPDRFSGSKSGTSASLAISGLQSEDEADYYCQSYSSGFIFGGGTKLTVL
notes: scFv order VH-(GGGGS)3-VL on Fc chain A; chain B is Fc only; also called v21825; not shown: Fc-only chain B is also left out
binds: [1]
